Results of single-concentration screens

From ChEMBL document CHEMBL3988442, “University of Dundee, Small-Polar-MMV Screening Library” (2021).

A: 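Assay of Toxoplasma gondii numbers, read through their beta-galactosidase reporter with a colour substrate. Compounds at 10 µM. The record gives no direction; the compounds picked for IC50 retests had high values, so higher reads as fewer parasites. About 67,000 compounds were tested under these conditions; 0.38% (about 260) showed 50% or more at least once.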
B: 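Cell assay of Leishmania donovani living inside macrophages; the read-out is not stated. Concentration: 30 µM. Direction is inferred from retests: higher values go with stronger inhibition. About 69,000 compounds were tested under these conditions; 1.5% (about 1,000) showed 50% or more at least once.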

Results are given as percent effect. The controls that fix the scale are not given in the record; negative values are as filed. The compounds are a random part of those screened. Two or more numbers in one place are separate tests of the same structure; such repeats can differ widely.

CC(C)n1cc(CN2CCCN(C(=O)c3ccnn3C)CC2)cn1 gave A: -40.06%; B: 16.07%. CCN(C)C(=O)C1(c2ccc(F)cc2F)CCC1 gave A: 6.065%; B: -0.09547%. With CC(=O)NC1CC(C)(C)Cc2c1cnn2-c1cccc(F)c1 (centres unmarked) the screen gave A: 11.38%; B: 13.97%. O=C(CC1CCCCC1)NC1CCCCNC1=O (centres unmarked) read A: 0.6632%; B: 28.17%. For CCc1noc(CC)c1CC(=O)N1CCN(C(=O)C2CCCC2)CC1 the result was A: -1.471%; B: 35.66%. Result for CCCc1nc(C(C)(C)NC(=O)C2CC(=O)N(CC(C)C)C2)no1 (centres unmarked) was A: -8.711%; B: 16.13%.

With COc1ccccc1C(C)N1CCN(S(=O)(=O)N(C)C)CC1 (centres unmarked) the screen gave A: 5.769%; B: 7.788%. Result for O=C(c1coc2ccccc12)N1CCCC1 was A: 4.452%; B: 8.515%. For CCN(CCc1nc2cc(C)ccc2[nH]1)C(=O)[C@@H](N)CCSC the result was A: 8.891%; B: 16.35%. With CCc1nc(C#N)c(N2CCC(c3nc(-c4ccccc4)no3)CC2)o1 the screen gave A: 3.736%; B: 16.6%. For O=C1NCCN1C1CCN(CCOc2ccccc2Cl)CC1 the result was A: 17.96%; B: 12.6%. Cn1cnc2c1C(COCC1CC1)CN(c1ncccn1)C2.O=C(O)C(F)(F)F.O=C(O)C(F)(F)F (centres unmarked) read A: 18.2%; B: 0.4047%.

O=C(CC1=CCCCC1)NCCc1csc(N2CCCC2)n1 read A: 0%; B: 26.62%. For COc1ccnc(N2CCN(C(=O)Cc3ccc(C#N)cc3)CC2)n1 the result was A: -5.966%; B: 27.01%. Result for COc1ccc(NC(=O)NC(C)c2nc[nH]n2)cc1Cl (centres unmarked) was A: -4.812%; B: -9.697%. With CCOc1ccccc1-n1c(C2CCC2)n[nH]c1=O the screen gave A: -9.07%; B: 14.61%. For Cc1nnc2n1CCN(Cc1ncc(-c3ccccc3)o1)C2 the result was A: 8.965%; B: 16.75%. With COc1cc(C2SC(C)=Nc3c2c(=O)[nH]n3C2CCCC2)ccc1O (centres unmarked) the screen gave A: 4.178%; B: -9.073%.

CN(Cc1nnc(C2CC2)n1C)C(=O)c1ccnc(OC2CCC2)c1 gave A: -1.039%; B: 15.52%. With Cn1cnnc1C1CCCN(Cc2nc(Cc3ccccc3)no2)C1 (centres unmarked) the screen gave A: 9.313%; B: 13%. With Cc1cnn(CC2CCCN2C(=O)c2cnc3n[nH]c(C)c3c2)c1 (centres unmarked) the screen gave A: 5.231%; B: -16.71%. For O=C(NCc1c(F)cccc1F)C1CN(C(=O)c2cnccn2)C1 the result was A: 8.237%; B: 10.58% and 10.05%. Result for CC(c1nc(C2CC2)no1)N1CCN(Cc2nnc(C3CC3)o2)CC1 (centres unmarked) was A: 6.244%; B: -12.34%. Result for O=c1n(Cc2cccc(F)c2)nc2ncccn12 was A: 14.68%; B: -20.88%.

O=C(C1CN(CC2CCOCC2)CC12CCOCC2)N1CCOCC1.O=C(O)C(F)(F)F (centres unmarked) gave A: 1.793%; B: -8.974%. For Cc1csc(N2CCN(Cc3ccn(C)c(=O)c3)CC2)n1 the result was A: 2.31%; B: 31.35%. With CC(C1CCN(Cc2c(Cl)cncc2Cl)CC1)N1CCN(C)CC1 (centres unmarked) the screen gave A: 4.535%; B: -22.03%. CCC(C)[C@H](N)c1nnc(SCC(=O)Nc2cc(C)ccc2C)o1.Cl (some centres unmarked) gave A: 21.57%; B: 18.64% and 5.724%. For CN(C)CCn1c2c(ccc1=O)CCN(Cc1cnn(C)c1)CC2.O=C(O)C(F)(F)F.O=C(O)C(F)(F)F the result was A: 6.846%; B: 27.61%. For Cc1ccc2nc(C)c(C)c(C(=O)NCCCn3cnnc3)c2c1 the result was A: -3.662%; B: 14.35%.

For reference, 3 entries once more:

Compound	A	B
O=C(CC1=CCCCC1)NCCc1csc(N2CCCC2)n1	0%	26.62%
O=c1n(Cc2cccc(F)c2)nc2ncccn12	14.68%	-20.88%
CN(C)CCn1c2c(ccc1=O)CCN(Cc1cnn(C)c1)CC2.O=C(O)C(F)(F)F.O=C(O)C(F)(F)F	6.846%	27.61%